Measurements from US8324166B2, “Neuroprotection using NAP-like and SAL-like peptide mimetics” (Ramot at Tel-Aviv University, Ltd., priority 2007, dated 2012).
“Also recorded” adds a separate entry of the source.

System: actin
Assay: Nuclear actin level in cerebral cortex by immunoblotting
Format: in vivo, mouse
Conditions: NAT treated TAU-Tg vs other groups, listed as NAT

NATLSIHQ (synthetic NAP-like peptide)
amount of actin in cell nucleus: no statistical difference; also recorded: no significant change
